Structures can show the parent of a compound that is named as a salt. Some of the results follow. The calls rarely recur for the same compound in another form.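 Kinases were expressed as nanoluciferase fusions in K562 cells and luminescence was read every 4 h between 2 and 18 h as percent of control, DMSO set to 100% and a positive control to 0%. A time point counts as decreased when the signal drops significantly (2 sigma). The hit call is the authors' own, does not follow from the count of time points alone, and its rule is not shown.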
Target: EGFR_L858R (UniProt P00533)
Assay: number of time points (of 5) at which kinase-Nluc abundance scored as decreased, DMSO-normalised (count); higher = more persistent destabilization
Details: K562; 2-18 h

Compound | number of time points
COCCOc1ccc(-c2cn(-c3ccccc3)c3nc[nH]c(=O)c23)cc1 (10 µM) | 0
CC(C)CC1(O)CCN(C(=O)c2ccc(NS(=O)(=O)c3cccc4nccnc34)cc2)CC1 (10 µM) | 0
Cc1cc(Nc2cc(Cl)nc(Oc3ccc([N+](=O)[O-])cc3)n2)n[nH]1 [Autophinib] (2.5 µM) | 0
O=C(NCCO)c1ccc2c(c1)nc(Nc1cccc(Cl)c1)c1ccncc12 [CK2 inhibitor 2] (10 µM) | 0
COc1ccc(C2CC(c3ccccc3)=NN2c2ccc(S(N)(=O)=O)cc2)cc1 (stereo not drawn) (10 µM) | 0
C[C@@H]1O[C@@H](O[C@H]2[C@H](Oc3cc(O)c4c(=O)cc(-c5ccc(O)cc5)oc4c3)O[C@H](CO)[C@@H](O)[C@@H]2O)[C@H](O)[C@H](O)[C@H]1O [Rhoifolin] (10 µM) | 0
O=[N+]([O-])c1cc(C(F)(F)F)cc([N+](=O)[O-])c1NNC(=S)Nc1ccc(F)cc1 (10 µM) | 0
CCc1cc(O)c(F)cc1-c1ccc2c(-c3nc4c([nH]3)CN(C3CCN(C)CC3)CC4)n[nH]c2c1 [JAK-IN-5 (hydrochloride)] (2 µM) | 2
O=C(Nc1cccnc1)c1cc(C(=O)c2c(F)cccc2Br)c[nH]1 (10 µM) | 0
COc1ccc2c(c1O)OC(C)(C)c1c-2ccc2c1C(=O)N(c1ccc(C(=O)c3ccccc3)cc1)C2=O [Ampkinone] (10 µM) | 0
CC1CCc2nc(N)c(C#N)c(-c3cccnc3)c2C1 (stereo not drawn) (10 µM) | 0
COc1cc(F)c(F)c(Nc2ccc(I)cc2F)c1NS(=O)(=O)C1(C[C@H](O)CO)CC1 [Refametinib] (10 µM) | 1
Cn1nccc1Nc1nccc(-c2cc3c(s2)C(C)(C)N(CCN2CCOCC2)C3=O)n1 (10 µM) | 0
Cc1ccc(-c2c(C(=O)CCl)n(CCCO)c3ncnc(N)c23)cc1 (10 µM) | 2
N[C@H](Cc1c[nH]c2ccccc12)C(=O)N/N=C/c1ccc2nccnc2c1 [Rhosin (hydrochloride)] (10 µM) | 0
CNCc1ccccc1-c1csc([C@@H](C)Nc2nc(C)nc3cc(OC)c(OC)cc23)c1 (2.5 µM) | 1
Cn1cnc(-c2cc3nccc(Oc4ccc(NC(=S)NC(=O)Cc5ccccc5)cc4F)c3s2)c1 [MGCD-265 analog] (10 µM) | 0
C=C1C(=O)O[C@@H]2C[C@@]3(C)CCC[C@H](C)C3=C[C@H]12 [Alantolactone] (10 µM) | 0
O=C(Nc1ccc(F)cc1F)[C@H](NC(=S)Nc1cc(C(F)(F)F)cc(C(F)(F)F)c1)c1ccccc1 (2.5 µM) | 0
Fc1ccc(-c2nc(-c3ccccc3F)[nH]c2-c2ccncc2)cc1 (2.5 µM) | 0
Cc1ccc(Oc2nc3cc(-c4ccc5c(ccn5C)c4)c(Cl)cc3[nH]2)cc1C(=O)O (10 µM) | 0
COc1ccc([C@H]2c3[nH]c4ccc(Cl)cc4c3CCN2C(=O)Oc2ccc(Cl)cc2)cc1 (2.5 µM) | 0
COc1ncc(-c2nc(N3CCOCC3)nc3c(CN4CCC(C(C)(C)O)CC4)cc(F)cc23)cc1NS(C)(=O)=O [Linperlisib] (10 µM) | 0
C[C@@H](c1ccc2nccn2c1)n1nnc2ncc(-c3cnn(C)c3)nc21 [Savolitinib] (10 µM) | 0
CCn1c(-c2nonc2N)nc2cnc(Oc3cccc(NC(=O)c4ccc(OCCN5CCOCC5)cc4)c3)cc21 (10 µM) | 0
COc1ccc(C(=O)Nc2sc3c(c2C(N)=O)CCCC3)cc1OC (10 µM) | 0
COc1ccc(CC(=O)Nc2nc3c(s2)CCc2ccccc2-3)cc1OC (10 µM) | 0
O=C1Nc2nc(-c3c(O)cccc3OCC3CC3)cc([C@@H]3CCCNC3)c2CO1 [Bay 65-1942 (hydrochloride)] (10 µM) | 0

For reference, two of the compounds above:
Compound | number of time points
O=C(Nc1ccc(F)cc1F)[C@H](NC(=S)Nc1cc(C(F)(F)F)cc(C(F)(F)F)c1)c1ccccc1 (2.5 µM) | 0
Fc1ccc(-c2nc(-c3ccccc3F)[nH]c2-c2ccncc2)cc1 (2.5 µM) | 0

Source: the supplement of paper PMC12823440, “Inhibitors supercharge kinase turnover through native proteolytic circuits” (Nature, 2025)
